# These are yes or no findings as the source states them, for the method shown. For some of these results: Binding calls can cover weak binding; strength is not graded here.
# By UniProt entry, the sequences of proteins in these tests, tags left out. Where a name states a change or a piece, a line headed by the entry shows the natural chain unless it says otherwise. Residues count along the entry.
# UniProt P24228, residues 21-477: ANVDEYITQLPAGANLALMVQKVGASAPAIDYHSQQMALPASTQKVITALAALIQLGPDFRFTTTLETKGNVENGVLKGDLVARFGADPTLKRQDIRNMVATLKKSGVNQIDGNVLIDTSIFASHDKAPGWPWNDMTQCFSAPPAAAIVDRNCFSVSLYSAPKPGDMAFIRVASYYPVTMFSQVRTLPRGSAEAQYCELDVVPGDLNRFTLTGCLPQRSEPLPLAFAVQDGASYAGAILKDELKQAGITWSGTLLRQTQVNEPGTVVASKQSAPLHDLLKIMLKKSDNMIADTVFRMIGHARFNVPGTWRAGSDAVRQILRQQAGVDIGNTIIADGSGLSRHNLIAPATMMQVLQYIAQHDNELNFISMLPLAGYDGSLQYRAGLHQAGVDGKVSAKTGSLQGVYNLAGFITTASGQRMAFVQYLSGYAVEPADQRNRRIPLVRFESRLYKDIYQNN
# UniProt P0AFS9: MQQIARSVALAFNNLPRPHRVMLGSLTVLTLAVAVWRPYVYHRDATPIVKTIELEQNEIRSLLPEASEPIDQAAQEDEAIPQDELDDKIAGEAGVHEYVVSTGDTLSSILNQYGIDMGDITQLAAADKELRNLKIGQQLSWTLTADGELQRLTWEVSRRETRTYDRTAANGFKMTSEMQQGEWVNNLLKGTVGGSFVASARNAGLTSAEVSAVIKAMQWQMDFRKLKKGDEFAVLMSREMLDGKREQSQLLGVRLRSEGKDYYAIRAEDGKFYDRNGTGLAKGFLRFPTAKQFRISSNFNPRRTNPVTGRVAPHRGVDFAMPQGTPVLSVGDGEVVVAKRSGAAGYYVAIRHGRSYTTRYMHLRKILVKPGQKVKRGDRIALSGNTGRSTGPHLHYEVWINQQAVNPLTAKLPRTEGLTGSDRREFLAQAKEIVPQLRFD
# Columns and labels:
# [1] = biological target: T1, NlpI, soluble version lacking its membrane anchor (Escherichia coli) (UniProt P0AFB1); assay: pull-down; Ni2+-NTA agarose beads; His-tagged protein with untagged or native ligand, overnight at 4°C; 10 mM HEPES/NaOH, 10 mM MgCl2, 150 mM NaCl, 0.05% Triton X-100, pH 7.5; washes with 30 mM imidazole; SDS-PAGE; both purified
# T1 sequence (chain, where used as fl-NlpI in MST, NT647 RED-NHS dye on amines): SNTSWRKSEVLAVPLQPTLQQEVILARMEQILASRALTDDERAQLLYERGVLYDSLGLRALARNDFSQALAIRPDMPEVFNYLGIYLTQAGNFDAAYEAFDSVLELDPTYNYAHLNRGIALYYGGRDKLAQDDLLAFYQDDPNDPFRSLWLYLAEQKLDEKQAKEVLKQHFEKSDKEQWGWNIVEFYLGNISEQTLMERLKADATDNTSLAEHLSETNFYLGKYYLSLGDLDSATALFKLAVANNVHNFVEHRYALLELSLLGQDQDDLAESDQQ
# MepS (Escherichia coli) = biological target: T2, MepS (Escherichia coli) (UniProt P0AFV4); assay: MST + pull-down; endopeptidases tested against each other, 'a combination of MST and Ni2+-NTA pull-down assays'; all combinations of MepM, MepS, PBP4, PBP7; both purified
# T2 sequence (chain, where used as fl-MepS in MST, NT647 RED-NHS dye on amines): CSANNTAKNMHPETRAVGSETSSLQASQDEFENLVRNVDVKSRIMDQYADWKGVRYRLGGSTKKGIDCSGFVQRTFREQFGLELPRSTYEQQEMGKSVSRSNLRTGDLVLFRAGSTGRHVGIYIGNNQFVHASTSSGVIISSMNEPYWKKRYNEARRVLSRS
# [2] = biological target: T3, PBP7, purified (Escherichia coli) (UniProt P0AFI5); assay: as above
# T3 sequence (chain, where used as the labelled protein in MST, NT647 RED-NHS dye on amines): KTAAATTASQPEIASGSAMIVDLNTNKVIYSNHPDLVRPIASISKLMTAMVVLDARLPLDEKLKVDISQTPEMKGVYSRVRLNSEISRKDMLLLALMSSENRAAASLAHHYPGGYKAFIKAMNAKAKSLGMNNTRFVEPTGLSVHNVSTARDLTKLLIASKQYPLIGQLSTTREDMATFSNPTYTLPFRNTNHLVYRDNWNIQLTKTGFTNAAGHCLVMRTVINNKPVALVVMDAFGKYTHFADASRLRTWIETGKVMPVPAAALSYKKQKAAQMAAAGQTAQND
# [3] = biological target: PBP4, native, purified (Escherichia coli) (UniProt P24228); assay: as above
substance,measurement,setting,value
MepM (from UniProt P0AFS9) (enzyme),binding,[1],binds
same,binding,MepS (Escherichia coli),binds
same,binding,[2],no binding
same,binding,[3],no binding

# Source: article PMC7049810
